PubChem BioAssay AID1053208, Peter MacCallum Cancer Centre | 2014
Assay: 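Find knock-downs that sensitise mouse osteosarcoma cells to doxorubicin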 (primary screen). Cell system: mouse osteosarcoma cells, early-passage culture from an engineered mouse model of fibroblastic bone tumour. Reagents: siRNA pool against mouse genes, 40 nM. Timing: about 120 h (48 h before drug, then 72 h with drug). Conditions: doxorubicin 100 nM for 72 h, roughly 30-40% inhibitory dose. Detection: 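Viability read as ATP luminescence after 72 h of 100 nM doxorubicin or none, duplicate wells averaged, scaled to non-targeting siRNA, then expressed as robust z-scores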. Scale: viability z-score with doxorubicin: higher = more viable cells under doxorubicin; viability z-score without drug: higher = more viable cells with knock-down alone. Call rule: 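a pool counts as active when its viability z-score with doxorubicin is -2 or below and its z-score without drug lies between -2 and 2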.
Shown is an unselected part of about 17,000 reagents. Over the whole deposit, 788 (4.7%) got an active call. 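Calls rest on z-score classes alone; an extra cut-off of viability at most 70% of control was not applied to them.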 A reagent listed more than once was tested more than once; the source does not tell the runs apart. Not all columns of the deposit are shown.

For Cpped1 (calcineurin-like phosphoesterase domain containing 1) the deposit lists combined z-score class no change with or without drug; viability z-score with doxorubicin -0.67; viability z-score without drug -0.17; inactive.
With knock-down of Cfdp1 (craniofacial development protein 1), the record shows combined z-score class no change with or without drug; viability z-score with doxorubicin -1.57; viability z-score without drug -0.51; inactive.
For Cdc14b (CDC14 cell division cycle 14B), the values are combined z-score class no change with or without drug; viability z-score with doxorubicin -0.11; viability z-score without drug -0.51; inactive.
4931403M11Rik (RIKEN cDNA 4931403M11 gene) showed combined z-score class no change with or without drug; viability z-score with doxorubicin 0.34; viability z-score without drug -1.35; inactive.
Knock-down of Lsm5 resulted in: combined z-score class no change with or without drug; viability z-score with doxorubicin 0.22; viability z-score without drug -0.51; inactive.
Or1n1b (olfactory receptor family 1 subfamily N member 1B) scored combined z-score class no change with or without drug; viability z-score with doxorubicin 0; viability z-score without drug -1.52; inactive.
Silencing of Ifi203 (interferon activated gene 203) gave: combined z-score class no change with or without drug; viability z-score with doxorubicin -0.67; viability z-score without drug 0.17; inactive.
Qtgal (queuosine-tRNA galactosyltransferase) gave combined z-score class high cell count with doxorubicin only; viability z-score with doxorubicin 2.02; viability z-score without drug 0.51; inactive.
Scamp4 scored combined z-score class low cell count with doxorubicin only; viability z-score with doxorubicin -2.02; viability z-score without drug 1.18; active.
Against 9230112E08Rik (RIKEN cDNA 9230112E08 gene), the entry reads combined z-score class no change with or without drug; viability z-score with doxorubicin 0.22; viability z-score without drug -0.17; inactive.
9230112E08Rik (RIKEN cDNA 9230112E08 gene) scored combined z-score class high cell count with doxorubicin only; viability z-score with doxorubicin 2.25; viability z-score without drug 1.52; inactive.
Klrk1 (killer cell lectin-like receptor subfamily K, member 1) showed combined z-score class low cell count with doxorubicin only; viability z-score with doxorubicin -2.7; viability z-score without drug -1.52; active.
Cct7 (chaperonin containing TCP1 subunit 7) showed combined z-score class low cell count without drug only; viability z-score with doxorubicin -0.45; viability z-score without drug -2.02; inactive.
Or4k35 (olfactory receptor family 4 subfamily K member 35) showed combined z-score class no change with or without drug; viability z-score with doxorubicin -0.34; viability z-score without drug -0.51; inactive.
Silencing of Tiaf2 (TGF-beta1-induced anti-apoptotic factor 2) came out at: combined z-score class no change with or without drug; viability z-score with doxorubicin -1.8; viability z-score without drug 0.51; inactive.
With knock-down of Cyp24a1 (cytochrome P450, family 24, subfamily a, polypeptide 1), the record shows combined z-score class no change with or without drug; viability z-score with doxorubicin 0.11; viability z-score without drug 1.18; inactive.
Knock-down of Or2m12 (olfactory receptor family 2 subfamily M member 12) gave: combined z-score class no change with or without drug; viability z-score with doxorubicin -0.45; viability z-score without drug -1.18; inactive.
Against Jmjd8 (jumonji domain containing 8), the values are combined z-score class no change with or without drug; viability z-score with doxorubicin 1.01; viability z-score without drug 1.35; inactive.
For Defb7 (defensin beta 7), the entry reads combined z-score class no change with or without drug; viability z-score with doxorubicin -0.22; viability z-score without drug -0.51; inactive.
